Assay results reported in doi:10.1101/2023.12.04.569948.
No constants are given. Whether binding was seen depends on the method and setting. In cells and extracts the contact can be indirect. Some entries that bind do so weakly or less than the wild type.

By UniProt entry, the sequences of proteins in these tests, tags left out. Residues count along the entry.
UniProt Q9Y6I3: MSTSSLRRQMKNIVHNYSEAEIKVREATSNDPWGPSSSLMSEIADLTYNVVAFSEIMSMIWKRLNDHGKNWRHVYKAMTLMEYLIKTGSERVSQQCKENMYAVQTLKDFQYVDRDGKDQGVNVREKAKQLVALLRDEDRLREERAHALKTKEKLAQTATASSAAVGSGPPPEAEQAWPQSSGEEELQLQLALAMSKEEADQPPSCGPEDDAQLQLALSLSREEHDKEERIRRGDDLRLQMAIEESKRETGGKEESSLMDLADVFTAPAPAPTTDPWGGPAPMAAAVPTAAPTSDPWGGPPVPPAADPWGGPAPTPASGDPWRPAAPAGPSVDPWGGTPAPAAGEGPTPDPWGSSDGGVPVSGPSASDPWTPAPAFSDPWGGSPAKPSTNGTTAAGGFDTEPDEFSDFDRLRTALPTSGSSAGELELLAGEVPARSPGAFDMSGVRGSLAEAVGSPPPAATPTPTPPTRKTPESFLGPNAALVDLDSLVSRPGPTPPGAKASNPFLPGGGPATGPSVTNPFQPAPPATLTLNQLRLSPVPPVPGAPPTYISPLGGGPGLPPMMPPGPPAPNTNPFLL
UniProt Q07113, residues 36-2483: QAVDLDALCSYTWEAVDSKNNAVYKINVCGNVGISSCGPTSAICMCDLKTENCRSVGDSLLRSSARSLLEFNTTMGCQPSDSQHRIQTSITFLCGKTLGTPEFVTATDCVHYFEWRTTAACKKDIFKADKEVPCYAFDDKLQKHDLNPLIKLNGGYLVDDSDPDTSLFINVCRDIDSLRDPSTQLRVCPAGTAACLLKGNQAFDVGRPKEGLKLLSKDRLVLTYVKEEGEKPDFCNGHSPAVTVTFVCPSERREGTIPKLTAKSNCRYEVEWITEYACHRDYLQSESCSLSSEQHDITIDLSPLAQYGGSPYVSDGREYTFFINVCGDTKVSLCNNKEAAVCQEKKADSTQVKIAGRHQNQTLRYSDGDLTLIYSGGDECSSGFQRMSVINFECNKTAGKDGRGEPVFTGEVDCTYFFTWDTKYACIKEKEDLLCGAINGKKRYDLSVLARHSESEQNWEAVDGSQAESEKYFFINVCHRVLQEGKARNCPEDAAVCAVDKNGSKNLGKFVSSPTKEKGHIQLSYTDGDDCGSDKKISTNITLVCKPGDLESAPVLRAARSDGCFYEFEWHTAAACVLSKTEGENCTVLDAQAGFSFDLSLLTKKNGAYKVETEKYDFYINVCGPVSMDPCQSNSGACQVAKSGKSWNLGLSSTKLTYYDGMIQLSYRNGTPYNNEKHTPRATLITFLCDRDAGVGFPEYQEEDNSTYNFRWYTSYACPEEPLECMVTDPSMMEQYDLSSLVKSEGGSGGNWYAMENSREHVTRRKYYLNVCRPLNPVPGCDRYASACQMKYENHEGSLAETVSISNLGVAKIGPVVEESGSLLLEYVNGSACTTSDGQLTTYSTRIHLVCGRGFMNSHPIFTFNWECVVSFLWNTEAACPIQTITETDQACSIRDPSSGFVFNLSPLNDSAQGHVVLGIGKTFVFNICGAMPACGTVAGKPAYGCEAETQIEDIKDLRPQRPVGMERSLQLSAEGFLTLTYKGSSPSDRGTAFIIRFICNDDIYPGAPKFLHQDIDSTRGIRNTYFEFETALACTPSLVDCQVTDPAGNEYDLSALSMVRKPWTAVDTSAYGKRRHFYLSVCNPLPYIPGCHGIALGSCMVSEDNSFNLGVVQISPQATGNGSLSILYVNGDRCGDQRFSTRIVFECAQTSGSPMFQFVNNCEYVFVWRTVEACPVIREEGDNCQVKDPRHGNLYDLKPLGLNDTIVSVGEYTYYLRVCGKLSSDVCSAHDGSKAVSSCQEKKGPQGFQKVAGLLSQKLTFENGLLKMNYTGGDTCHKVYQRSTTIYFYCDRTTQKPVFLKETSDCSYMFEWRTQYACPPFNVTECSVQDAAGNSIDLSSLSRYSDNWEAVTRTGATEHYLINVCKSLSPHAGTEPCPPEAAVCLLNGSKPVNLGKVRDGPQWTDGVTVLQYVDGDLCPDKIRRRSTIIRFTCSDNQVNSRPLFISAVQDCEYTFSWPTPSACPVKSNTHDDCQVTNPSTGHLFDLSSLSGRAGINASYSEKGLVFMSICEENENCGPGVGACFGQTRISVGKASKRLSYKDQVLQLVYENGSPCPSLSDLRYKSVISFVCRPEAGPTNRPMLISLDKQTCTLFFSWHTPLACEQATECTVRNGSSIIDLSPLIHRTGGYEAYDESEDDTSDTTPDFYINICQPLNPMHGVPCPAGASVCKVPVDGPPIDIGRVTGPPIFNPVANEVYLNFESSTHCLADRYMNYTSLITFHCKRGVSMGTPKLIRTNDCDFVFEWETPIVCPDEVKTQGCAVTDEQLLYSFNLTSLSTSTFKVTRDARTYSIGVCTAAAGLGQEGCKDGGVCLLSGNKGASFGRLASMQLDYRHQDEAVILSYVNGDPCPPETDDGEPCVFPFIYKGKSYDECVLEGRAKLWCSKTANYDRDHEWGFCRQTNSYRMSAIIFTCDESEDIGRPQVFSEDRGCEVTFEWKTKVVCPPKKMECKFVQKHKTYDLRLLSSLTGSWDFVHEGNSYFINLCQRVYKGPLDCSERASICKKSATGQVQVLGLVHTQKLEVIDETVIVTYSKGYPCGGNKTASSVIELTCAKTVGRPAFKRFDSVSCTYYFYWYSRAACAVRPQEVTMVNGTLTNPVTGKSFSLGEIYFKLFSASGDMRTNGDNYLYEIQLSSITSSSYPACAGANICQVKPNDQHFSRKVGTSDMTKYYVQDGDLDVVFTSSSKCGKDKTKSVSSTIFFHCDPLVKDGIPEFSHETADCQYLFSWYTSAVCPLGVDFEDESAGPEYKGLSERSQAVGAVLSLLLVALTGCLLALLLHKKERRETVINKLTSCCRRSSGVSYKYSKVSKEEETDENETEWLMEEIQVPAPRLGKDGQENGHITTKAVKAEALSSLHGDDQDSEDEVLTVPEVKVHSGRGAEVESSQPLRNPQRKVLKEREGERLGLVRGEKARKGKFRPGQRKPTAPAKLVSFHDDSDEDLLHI

Molecular target: FLAG-epsin 1, full length (UniProt Q9Y6I3)
Assay: co-IP

binding: binds
Substance: IGF type 2 receptor (IGF2R) (from UniProt Q07113 36-2483)
